The values below come from patent US20110009474A1, “SIRTUIN BASED METHODS AND COMPOSITIONS FOR TREATING BETA-CATENIN-RELATED CONDITIONS” (President and Fellows of Harvard College, priority 2007, published 2011).

Sequences of proteins named here, by UniProt entry; tags and fusion partners are left off. A change or cut given only in a name is not applied to a line headed by its entry.
UniProt P35222: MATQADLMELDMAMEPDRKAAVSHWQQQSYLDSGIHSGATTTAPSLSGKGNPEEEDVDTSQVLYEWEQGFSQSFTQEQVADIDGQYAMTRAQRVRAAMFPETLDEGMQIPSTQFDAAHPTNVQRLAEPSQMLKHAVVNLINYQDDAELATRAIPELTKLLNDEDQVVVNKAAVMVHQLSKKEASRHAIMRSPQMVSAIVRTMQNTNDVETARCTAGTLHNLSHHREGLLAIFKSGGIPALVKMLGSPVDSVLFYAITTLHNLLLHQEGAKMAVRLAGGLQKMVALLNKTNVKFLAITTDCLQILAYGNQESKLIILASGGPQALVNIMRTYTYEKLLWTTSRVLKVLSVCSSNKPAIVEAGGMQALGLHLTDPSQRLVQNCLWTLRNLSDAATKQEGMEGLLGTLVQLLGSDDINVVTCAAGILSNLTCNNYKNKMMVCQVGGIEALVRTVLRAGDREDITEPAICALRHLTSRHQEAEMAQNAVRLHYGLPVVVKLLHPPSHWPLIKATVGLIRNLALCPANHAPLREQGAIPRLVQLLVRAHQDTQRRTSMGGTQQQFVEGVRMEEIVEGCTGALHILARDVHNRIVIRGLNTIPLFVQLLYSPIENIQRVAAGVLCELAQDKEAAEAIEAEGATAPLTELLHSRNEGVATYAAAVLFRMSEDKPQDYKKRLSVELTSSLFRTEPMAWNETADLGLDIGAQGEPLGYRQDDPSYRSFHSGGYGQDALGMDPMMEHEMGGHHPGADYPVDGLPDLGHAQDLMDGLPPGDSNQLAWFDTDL
UniProt Q96EB6: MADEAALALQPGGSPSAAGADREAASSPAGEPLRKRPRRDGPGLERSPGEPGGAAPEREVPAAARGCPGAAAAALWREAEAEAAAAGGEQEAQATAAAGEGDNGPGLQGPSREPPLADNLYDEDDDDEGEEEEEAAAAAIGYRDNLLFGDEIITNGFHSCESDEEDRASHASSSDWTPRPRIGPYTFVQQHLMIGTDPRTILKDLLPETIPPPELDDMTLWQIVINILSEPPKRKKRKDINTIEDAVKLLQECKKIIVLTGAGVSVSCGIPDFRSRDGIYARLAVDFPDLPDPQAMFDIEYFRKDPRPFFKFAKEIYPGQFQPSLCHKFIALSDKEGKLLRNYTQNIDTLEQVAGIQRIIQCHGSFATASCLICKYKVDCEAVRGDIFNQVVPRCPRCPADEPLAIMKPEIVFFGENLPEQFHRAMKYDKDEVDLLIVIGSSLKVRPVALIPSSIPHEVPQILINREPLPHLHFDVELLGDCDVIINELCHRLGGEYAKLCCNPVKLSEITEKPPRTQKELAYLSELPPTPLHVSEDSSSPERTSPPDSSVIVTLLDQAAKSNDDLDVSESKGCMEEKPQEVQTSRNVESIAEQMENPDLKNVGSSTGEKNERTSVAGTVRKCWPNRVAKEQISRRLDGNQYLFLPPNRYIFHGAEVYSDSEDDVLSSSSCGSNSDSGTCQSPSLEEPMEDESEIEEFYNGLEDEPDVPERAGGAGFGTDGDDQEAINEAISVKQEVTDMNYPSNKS

Assay [1] addresses endogenous β-catenin (human) (UniProt P35222). The experiment in a line: co-immunoprecipitation from LN-CAP extract with anti-SIRT1 antibody, FIG. 4C.
For assay [2] the target is unchanged. Nature of the assay: co-immunoprecipitation from LN-CAP cell extract (IP anti-SIRT1, blot anti-β-catenin).

Results are given in words; binding and its absence hold for the method and conditions named. Binding seen in cells or lysates may run through a third protein. Some results given as binding are weak or reduced against the parent protein; the word gives no strength.

On to “endogenous SIRT1 (LN-CAP cells) (from UniProt Q96EB6 2-747)”, for which the binding result in assay [1] and in assay [2] was “binds” throughout.
